# Data from patent publication US20170189504A1, “NOVEL PEPTIDES AND COMBINATION OF PEPTIDES FOR USE IN IMMUNOTHERAPY AGAINST VARIOUS CANCERS” (immatics biotechnologies GmbH, priority 2015, published 2017).
# For some of these results: For expression read-outs the peptide stands for its source gene, whose mRNA was measured; the gene is not named for every peptide.
# Experiments:
# [1] = test system: source genes (mRNA); assay: Gene and exon expression of source genes, TCGA tumor samples compared with normal tissue samples (Lonsdale, 2013) (Table 17); parameters: species or system human; conditions: for Target coverage: over-expression category of source gene, LAML: Acute Myeloid Leukemia (N = 173); for Target coverage: over-expression category of source gene, BRCA: Breast cancer (N = 1104), cutoff more than 2-fold above highest 75% percentile of high and medium risk normal tissue samples; for Target coverage: over-expression category of source gene, KIRC: Clear cell kidney carcinoma (N = 534); for Target coverage: over-expression category of source gene, READ: Colon and rectal adenocarcinoma (N = 167); for Target coverage: over-expression category of source gene, COAD: Colon and rectal adenocarcinoma (N = 462); for Target coverage: over-expression category of source gene, ESCA: Esophageal cancer (N = 185); for Target coverage: over-expression category of source gene, KICH: Kidney chromophobe (N = 66); for Target coverage: over-expression category of source gene, LGG: Lower grade glioma (N = 534); for Target coverage: over-expression category of source gene, LUAD: Lung adenocarcinoma (N = 517); for Target coverage: over-expression category of source gene, LUSC: Lung squamous cell carcinoma (N = 503); for Target coverage: over-expression category of source gene, OV: Ovarian serous cystadenocarcinoma (N = 309); for Target coverage: over-expression category of source gene, PAAD: Pancreatic ductal adenocarcinoma (N = 179); for Target coverage: over-expression category of source gene, KIRP: Papillary kidney carcinoma (N = 291); for Target coverage: over-expression category of source gene, PRAD: Prostate adenocarcinoma (N = 498); for Target coverage: over-expression category of source gene, SKCM: Skin cutaneous melanoma (N = 473); for Target coverage: over-expression category of source gene, STAD: Stomach adenocarcinoma (N = 415); for Target coverage: over-expression category of source gene, UCEC: Uterine corpus endometrial carcinoma (N = 546)
# [2] = test system: source genes (mRNA); assay: Expression profiling of source genes by in-house RNASeq of tumor and normal tissues (Table 18, FIG. 2); parameters: species or system human; key: very highly over-expressed in tumors compared to a panel of normal tissues (+++); highly over-expressed in tumors compared to a panel of normal tissues (++); over-expressed in tumors compared to a panel of normal tissues (+); conditions: source gene of peptide; for Expression score BRCA: BRCA tumors vs panel of normal tissues; for Expression score CRC: colorectal cancer (N = 20) vs panel of normal tissues; for Expression score OSCAR: esophageal cancer incl. gastric-esophageal junction (N = 11) vs panel of normal tissues; for Expression score GB: glioblastoma (N = 24) vs panel of normal tissues; for Expression score NSCLC: non-small cell lung cancer (N = 11) vs panel of normal tissues; for Expression score OC: ovarian cancer (N = 12) vs panel of normal tissues; for Expression score SCLC: small cell lung cancer (N = 10) vs panel of normal tissues; for Expression score UBC: urinary bladder cancer (N = 10) vs panel of normal tissues
# [3] = test system: HLA-A*02; assay: Identification and relative LC-MS quantitation of HLA-A*02-presented tumor-associated peptides on tissue samples (presentation profiles, Tables 13A, 13B, 15, FIG. 1); parameters: species or system human; key to Presentation score NHL / Presentation score CLL / Presentation score BRCA / Presentation score AML / Presentation score GB / Presentation score NSCLC / Presentation score GBC_CCC / Presentation score UEC / Presentation score MEL / Presentation score OSCAR / Presentation score GC / Presentation score UBC / Presentation score OC / Presentation score RCC / Presentation score CRC / Presentation score PCA / Presentation score HCC / Presentation score PC / Presentation score SCLC: specifically presented on tumors (++++); very highly over-presented on tumors compared to a panel of normal tissues (+++); highly over-presented on tumors compared to a panel of normal tissues (++); over-presented on tumors compared to a panel of normal tissues (+); conditions: for Presentation score NHL: non-Hodgkin lymphoma (N = 18) vs panel of normal tissues (N = 262); for Presentation score NSCLC: non-small cell lung cancer (N = 90) vs panel of normal tissues (N = 262); for Peptide Presentation on cancer entities: HLA-A*02-binding tumor-associated peptides
# [4] = Table 13A, cancer entities on which the peptide was found presented
# [5] = cutoff more than 2-fold above highest 75% percentile of normal tissue samples
Substance,Expression score BRCA [2],Expression score CRC [2],Expression score OSCAR [2],Expression score GB [2],Expression score NSCLC [2],Expression score OC [2],Expression score SCLC [2],Expression score UBC [2],Presentation score NHL ([3]; HLA-A*02 peptides),Presentation score NSCLC ([3]; HLA-A*02 peptides),"Peptide Presentation on cancer entities [3, 4]","Target coverage: over-expression category of source gene, LAML [1, 5]","Target coverage: over-expression category of source gene, BRCA [1]","Target coverage: over-expression category of source gene, KIRC [1, 5]","Target coverage: over-expression category of source gene, READ [1, 5]","Target coverage: over-expression category of source gene, COAD [1, 5]","Target coverage: over-expression category of source gene, ESCA [1, 5]","Target coverage: over-expression category of source gene, KICH [1, 5]","Target coverage: over-expression category of source gene, LGG [1, 5]","Target coverage: over-expression category of source gene, LUAD [1, 5]",other results
239: peptide found in MCM4 (gene looked up) (KMNESTRSV; listed as Homo sapiens) [compound 239],+,+,+,+,+,+,++,+,++++,++++,"NSCLC, GBC_CCC, NHL",,,,,,,,,,"Over-expression category of source gene (target coverage), BLCA ([1]; BLCA = Bladder urothelial carcinoma (N = 408), same cutoff): B (>= 20% of tumors above the cutoff, but <50%); Over-expression category of source gene (target coverage), BRCA ([1]; BRCA = Breast cancer (N = 1104), tumors more than 2-fold above highest 75% percentile of normal tissues): B (>= 20% of tumors above the cutoff, but <50%); Over-expression category of source gene (target coverage), COAD ([1]; COAD = Colon and rectal adenocarcinoma (N = 462), same cutoff): A (>=50% of tumors above the cutoff); Over-expression category of source gene (target coverage), DLBC ([1]; DLBC = Lymphoid neoplasm diffuse large B-cell lymphoma (N = 48), same cutoff): B (>= 20% of tumors above the cutoff, but <50%); Over-expression category of source gene (target coverage), ESCA ([1]; ESCA = Esophageal cancer (N = 185), same cutoff): A (>=50% of tumors above the cutoff); Over-expression category of source gene (target coverage), GBM ([1]; GBM = Glioblastoma multiforme (N = 169), same cutoff): B (>= 20% of tumors above the cutoff, but <50%); Over-expression category of source gene (target coverage), LAML ([1]; LAML = Acute Myeloid Leukemia (N = 173), same cutoff): A (>=50% of tumors above the cutoff); Over-expression category of source gene (target coverage), LGG ([1]; LGG = Lower grade glioma (N = 534), same cutoff): C (>=5% of tumors above the cutoff, but <20%); Over-expression category of source gene (target coverage), LUAD ([1]; LUAD = Lung adenocarcinoma (N = 517), same cutoff): C (>=5% of tumors above the cutoff, but <20%); Over-expression category of source gene (target coverage), LUSC ([1]; LUSC = Lung squamous cell carcinoma (N = 503), same cutoff): A (>=50% of tumors above the cutoff); Over-expression category of source gene (target coverage), OV ([1]; OV = Ovarian serous cystadenocarcinoma (N = 309), same cutoff): B (>= 20% of tumors above the cutoff, but <50%); Over-expression category of source gene (target coverage), READ ([1]; READ = Colon and rectal adenocarcinoma (N = 167), same cutoff): A (>=50% of tumors above the cutoff); Over-expression category of source gene (target coverage), SKCM ([1]; SKCM = Skin cutaneous melanoma (N = 473), same cutoff): B (>= 20% of tumors above the cutoff, but <50%); Over-expression category of source gene (target coverage), STAD ([1]; STAD = Stomach adenocarcinoma (N = 415), same cutoff): B (>= 20% of tumors above the cutoff, but <50%); Over-expression category of source gene (target coverage), UCEC ([1]; UCEC = Uterine corpus endometrial carcinoma (N = 546), same cutoff): B (>= 20% of tumors above the cutoff, but <50%); Expression score AML ([2]; acute myeloid leukemia (N = 11) vs panel of normal tissues): +; Expression score NHL ([2]; non-Hodgkin lymphoma (N = 10) vs panel of normal tissues): +; Presentation score GBC_CCC ([3]; HLA-A*02 peptides, gallbladder adenocarcinoma and cholangiocarcinoma (N = 6) vs panel of normal tissues (N = 262)): ++++; Peptide Presentation on cancer entities ([3]; Table 13B, presentation on additional cancer entities): GB, CRC"
127: peptide found in LRRC59 (gene looked up) (KLDGNELDL; listed as Homo sapiens) [compound 127],+,+,+,+,+,+,,+,,++++,NSCLC,"B (>= 20% of tumors above the cutoff, but <50%)",A (>=50% of tumors above the cutoff),A (>=50% of tumors above the cutoff),A (>=50% of tumors above the cutoff),A (>=50% of tumors above the cutoff),A (>=50% of tumors above the cutoff),"B (>= 20% of tumors above the cutoff, but <50%)",A (>=50% of tumors above the cutoff),A (>=50% of tumors above the cutoff),"Target coverage: over-expression category of source gene, BLCA ([1]; Bladder urothelial carcinoma (N = 408), cutoff more than 2-fold above highest 75% percentile of normal tissue samples): A (>=50% of tumors above the cutoff); Target coverage: over-expression category of source gene, CHOL ([1]; Cholangiocarcinoma (N = 36), cutoff more than 2-fold above highest 75% percentile of normal tissue samples): A (>=50% of tumors above the cutoff); Target coverage: over-expression category of source gene, GBM ([1]; Glioblastoma multiforme (N = 169), cutoff more than 2-fold above highest 75% percentile of normal tissue samples): A (>=50% of tumors above the cutoff); Target coverage: over-expression category of source gene, LIHC ([1]; Liver hepatocellular carcinoma (N = 374), cutoff more than 2-fold above highest 75% percentile of normal tissue samples): A (>=50% of tumors above the cutoff); Target coverage: over-expression category of source gene, LUSC [1, 5]: A (>=50% of tumors above the cutoff); Target coverage: over-expression category of source gene, DLBC ([1]; Lymphoid neoplasm diffuse large B-cell lymphoma (N = 48), cutoff more than 2-fold above highest 75% percentile of normal tissue samples): A (>=50% of tumors above the cutoff); Target coverage: over-expression category of source gene, OV [1, 5]: A (>=50% of tumors above the cutoff); Target coverage: over-expression category of source gene, PAAD [1, 5]: A (>=50% of tumors above the cutoff); Target coverage: over-expression category of source gene, KIRP [1, 5]: A (>=50% of tumors above the cutoff); Target coverage: over-expression category of source gene, PRAD [1, 5]: A (>=50% of tumors above the cutoff); Target coverage: over-expression category of source gene, SKCM [1, 5]: A (>=50% of tumors above the cutoff); Target coverage: over-expression category of source gene, STAD [1, 5]: A (>=50% of tumors above the cutoff); Target coverage: over-expression category of source gene, UCEC [1, 5]: A (>=50% of tumors above the cutoff); Expression score GC ([2]; gastric cancer (N = 11) vs panel of normal tissues): +; Expression score UEC ([2]; uterine cancer (N = 10) vs panel of normal tissues): +"
34: peptide found in HUWE1 (gene looked up) (FLLATEVVTV; listed as Homo sapiens) [compound 34],+,,+,+,+,+,+,,++++,,"OC, SCLC, AML, NHL",A (>=50% of tumors above the cutoff),"B (>= 20% of tumors above the cutoff, but <50%)","B (>= 20% of tumors above the cutoff, but <50%)","C (>=5% of tumors above the cutoff, but <20%)","C (>=5% of tumors above the cutoff, but <20%)",A (>=50% of tumors above the cutoff),"C (>=5% of tumors above the cutoff, but <20%)","B (>= 20% of tumors above the cutoff, but <50%)","C (>=5% of tumors above the cutoff, but <20%)","Target coverage: over-expression category of source gene, LUSC [1, 5]: C (>=5% of tumors above the cutoff, but <20%); Target coverage: over-expression category of source gene, OV [1, 5]: B (>= 20% of tumors above the cutoff, but <50%); Target coverage: over-expression category of source gene, PAAD [1, 5]: C (>=5% of tumors above the cutoff, but <20%); Target coverage: over-expression category of source gene, KIRP [1, 5]: C (>=5% of tumors above the cutoff, but <20%); Target coverage: over-expression category of source gene, PRAD [1, 5]: C (>=5% of tumors above the cutoff, but <20%); Target coverage: over-expression category of source gene, SKCM [1, 5]: B (>= 20% of tumors above the cutoff, but <50%); Target coverage: over-expression category of source gene, STAD [1, 5]: A (>=50% of tumors above the cutoff); Target coverage: over-expression category of source gene, UCEC [1, 5]: C (>=5% of tumors above the cutoff, but <20%); Presentation score AML ([3]; HLA-A*02 peptides, acute myeloid leukemia (N = 18) vs panel of normal tissues (N = 262)): ++++; Presentation score OC ([3]; HLA-A*02 peptides, ovarian cancer (N = 20) vs panel of normal tissues (N = 262)): ++++; Presentation score SCLC ([3]; HLA-A*02 peptides, small cell lung cancer (N = 19) vs panel of normal tissues (N = 262)): ++++"
